Experimental data from PMC4732300.

The chains behind the UniProt entries cited, without tags or fusion partners.
UniProt Q6PFY1: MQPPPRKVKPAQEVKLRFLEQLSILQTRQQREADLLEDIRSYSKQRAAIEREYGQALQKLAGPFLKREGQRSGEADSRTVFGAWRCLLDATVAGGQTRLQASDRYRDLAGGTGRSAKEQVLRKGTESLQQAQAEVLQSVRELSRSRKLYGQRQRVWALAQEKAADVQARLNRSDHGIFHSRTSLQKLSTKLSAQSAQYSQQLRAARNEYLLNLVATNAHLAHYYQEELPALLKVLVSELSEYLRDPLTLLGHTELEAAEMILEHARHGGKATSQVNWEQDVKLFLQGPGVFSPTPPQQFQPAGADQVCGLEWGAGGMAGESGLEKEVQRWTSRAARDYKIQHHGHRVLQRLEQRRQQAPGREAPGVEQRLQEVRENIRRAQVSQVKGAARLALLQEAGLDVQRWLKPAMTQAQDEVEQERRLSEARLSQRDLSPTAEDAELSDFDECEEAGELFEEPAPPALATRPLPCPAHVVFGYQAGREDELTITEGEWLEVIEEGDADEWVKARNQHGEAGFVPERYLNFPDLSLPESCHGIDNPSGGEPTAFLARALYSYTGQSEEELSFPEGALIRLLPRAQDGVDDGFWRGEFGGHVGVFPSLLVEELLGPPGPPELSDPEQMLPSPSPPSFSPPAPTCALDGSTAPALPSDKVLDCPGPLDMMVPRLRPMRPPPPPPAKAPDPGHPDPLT
UniProt Q91VH2: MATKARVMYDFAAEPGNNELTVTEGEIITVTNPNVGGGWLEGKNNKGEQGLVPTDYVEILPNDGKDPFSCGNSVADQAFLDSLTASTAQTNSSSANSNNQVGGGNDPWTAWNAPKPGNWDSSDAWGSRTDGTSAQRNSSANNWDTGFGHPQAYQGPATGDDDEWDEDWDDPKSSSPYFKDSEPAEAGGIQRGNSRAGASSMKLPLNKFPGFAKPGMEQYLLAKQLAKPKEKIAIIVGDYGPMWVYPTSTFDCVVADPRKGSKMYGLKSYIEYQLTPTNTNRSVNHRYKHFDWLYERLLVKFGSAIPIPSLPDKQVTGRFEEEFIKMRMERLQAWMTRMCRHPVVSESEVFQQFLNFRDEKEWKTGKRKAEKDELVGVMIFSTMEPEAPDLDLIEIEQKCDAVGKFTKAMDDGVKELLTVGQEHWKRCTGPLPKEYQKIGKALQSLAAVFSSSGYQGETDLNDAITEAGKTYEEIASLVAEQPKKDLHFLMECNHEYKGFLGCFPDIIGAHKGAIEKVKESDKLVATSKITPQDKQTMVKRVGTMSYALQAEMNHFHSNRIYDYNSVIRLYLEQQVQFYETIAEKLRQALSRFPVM
UniProt Q6R891: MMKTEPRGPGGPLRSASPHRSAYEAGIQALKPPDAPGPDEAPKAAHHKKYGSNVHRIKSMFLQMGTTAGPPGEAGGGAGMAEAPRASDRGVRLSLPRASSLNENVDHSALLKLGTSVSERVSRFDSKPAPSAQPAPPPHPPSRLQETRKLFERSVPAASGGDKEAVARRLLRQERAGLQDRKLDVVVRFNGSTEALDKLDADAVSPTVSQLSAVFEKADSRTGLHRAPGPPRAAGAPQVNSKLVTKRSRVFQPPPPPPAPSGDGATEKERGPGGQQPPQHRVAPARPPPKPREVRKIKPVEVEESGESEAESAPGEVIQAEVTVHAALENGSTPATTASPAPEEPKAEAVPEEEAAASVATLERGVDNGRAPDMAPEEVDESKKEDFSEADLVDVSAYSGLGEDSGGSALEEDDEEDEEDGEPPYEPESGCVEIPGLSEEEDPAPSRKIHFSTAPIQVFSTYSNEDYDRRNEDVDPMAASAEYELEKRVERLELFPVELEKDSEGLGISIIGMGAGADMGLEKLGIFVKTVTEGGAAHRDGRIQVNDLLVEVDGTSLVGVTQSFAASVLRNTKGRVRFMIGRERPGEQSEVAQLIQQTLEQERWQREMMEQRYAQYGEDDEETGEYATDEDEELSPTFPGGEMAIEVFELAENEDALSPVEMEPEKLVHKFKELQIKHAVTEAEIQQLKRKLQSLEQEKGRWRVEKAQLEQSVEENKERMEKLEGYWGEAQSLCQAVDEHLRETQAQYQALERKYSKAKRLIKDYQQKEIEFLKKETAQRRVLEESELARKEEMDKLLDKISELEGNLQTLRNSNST

B1: sorting nexin 18 (SNX18), endogenous in CAD cells (protein, UniProt Q91ZR2 1-614)
chain: MALRARALYDFKSENPGEISLREHEVLSLCSEQDIEGWLEGINSRGDRGLFPASYVQVIRAPEPGPPADGGPGAPARYANVPPGGFEPLPAAPPAAFPPLLQPQASPGSFQPPGAGFPYGGGALQPSPQQLYGGYQASLGSDDDWDDEWDDSSTVADEPGALGSGAYPDLDGSSSAGGGAAGRYRLSTRSDLSLGSRGVSAPPAPSVWSQELGHGEPQPQSLLHLRQVGRGGLRAGRGVRLREGWGQAVRGAGSYGPEWQENPYPFQCTIDDPTKQTKFKGMKSYISYKLVPTHTQVPVHRRYKHFDWLYARLAEKFPVISVPHLPEKQATGRFEEDFISKRRKGLIWWMNHMASHPVLAQCDVFQHFLTCPSSTDEKAWKQGKRKAEKDEMVGANFFLTLSTPPAAALDLQEVESKIDGFKCFTKKMDDSALQLNHTANEFARKQVTGFKKEYQKVGQSFRGLSQAFELDQQAFSVGLNQAIAFTGDAYDAIGELFAEQPRQDLDPVMDLLALYQGHLANFPDIIHVQKGALTKVKESRRHVEEGKMEVQKADGIQDRCNTISFATLAEIHHFHQIRVRDFKSQMQHFLQQQIIFFQKVTQKLEEALHKYDSV

Biological target: FLAG–NWK2 (expressed in CAD cells) (mouse) (UniProt Q6PFY1)
Experiment: affinity purification with mass spectrometry; FLAG–NWK2 transiently expressed in CAD cells; lysate (50 mM Tris-HCl pH 7.5, 150 mM NaCl, 1 mM EDTA, 1% Triton X-100) on anti-FLAG agarose, washes with 500 mM NaCl, elution with 3×FLAG peptide, trypsin digestion, LC-MS/MS; untransfected cells as control

Molecule	binding
sorting nexin 9 (SNX9), endogenous in CAD cells (from UniProt Q91VH2 1-595)	binds
Spinophilin, endogenous in CAD cells (from UniProt Q6R891 1-817)	binds
B1	binds

These are yes or no findings as the source states them, for the method shown. In cells and extracts the contact can be indirect. Here binding means that the protein was enriched with, or labelled near, the bait; the list need not be complete.
